No constants are given. Whether binding was seen depends on the method and setting. Some entries that bind do so weakly or less than the wild type.
What was measured:
[1] = target: proprotein convertase subtilisin/kexin type 9 (PCSK9) (UniProt Q8NBP7); assay: PCSK9-LDLR in vitro binding assay kit, 50 µM peptide
[2] = target: proprotein convertase subtilisin/kexin type 9 (PCSK9) (UniProt Q8NBP7); assay: inhibition experiment of PCSK9-LDLR
[3] = target: proprotein convertase subtilisin/kexin type 9 (PCSK9) (UniProt Q8NBP7); assay: PCSK9-LDLR in vitro binding assay kit
bovine trypsin (bovine) = bovine trypsin (bovine) (UniProt P00760); assay: trypsin inhibition, BApNA substrate (IC50)

Protein sequences, listed by entry. Tags and fused reporters are not part of them. Residues count along the entry.
UniProt Q8NBP7, residues 31-692: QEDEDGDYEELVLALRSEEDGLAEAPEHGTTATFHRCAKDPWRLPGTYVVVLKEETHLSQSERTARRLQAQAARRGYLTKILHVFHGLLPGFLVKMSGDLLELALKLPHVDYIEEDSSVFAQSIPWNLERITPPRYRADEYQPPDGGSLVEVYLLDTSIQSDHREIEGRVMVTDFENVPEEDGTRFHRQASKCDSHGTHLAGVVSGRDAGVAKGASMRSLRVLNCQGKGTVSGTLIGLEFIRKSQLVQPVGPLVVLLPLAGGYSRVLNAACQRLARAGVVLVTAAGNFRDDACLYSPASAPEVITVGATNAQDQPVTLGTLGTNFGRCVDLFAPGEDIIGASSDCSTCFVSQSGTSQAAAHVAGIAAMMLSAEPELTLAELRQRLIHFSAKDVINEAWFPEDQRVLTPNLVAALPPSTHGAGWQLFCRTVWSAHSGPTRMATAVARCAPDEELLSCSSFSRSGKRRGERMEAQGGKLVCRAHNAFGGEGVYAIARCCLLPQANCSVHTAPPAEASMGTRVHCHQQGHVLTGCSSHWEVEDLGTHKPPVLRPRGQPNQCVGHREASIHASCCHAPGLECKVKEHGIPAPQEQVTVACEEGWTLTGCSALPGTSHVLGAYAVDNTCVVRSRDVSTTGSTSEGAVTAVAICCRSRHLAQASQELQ
UniProt P00760, residues 24-246: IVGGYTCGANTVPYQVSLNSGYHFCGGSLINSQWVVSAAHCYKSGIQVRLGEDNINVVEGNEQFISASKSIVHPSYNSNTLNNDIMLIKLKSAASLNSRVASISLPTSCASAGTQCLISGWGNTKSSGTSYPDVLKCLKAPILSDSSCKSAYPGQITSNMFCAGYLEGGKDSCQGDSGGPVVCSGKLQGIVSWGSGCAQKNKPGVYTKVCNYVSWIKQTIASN

| Binder | binding [1] | binding [2] | binding [3] | binding (bovine trypsin (bovine)) |
| --- | --- | --- | --- | --- |
| TVFTSWEEALDWVCGRATKSIPPICF (Cys-Cys disulfide) [PCSK9_2] | binds | binds | – | – |
| CGRATKSIPPICFGTVFTSWEEALDWV (Cys-Cys disulfide) [PCSK9_3] | binds | binds | – | – |
| WEEALDWVCGRATKSIPPICFGTVFTS (Cys-Cys disulfide) [PCSK9_5] | binds | binds | – | – |
| WEEYLDYVCGRATKSIPPICFGTVFTS (Cys-Cys disulfide) [PCSK9_6] | binds | binds | – | – |
| TVFTSGCGRATKSIPPICFWEEYLDWV (Cys-Cys disulfide) [PCSK9_7] | binds | binds | – | – |
| TVFTSGCGRATKSIPPICFSWEEYLDWV (Cys-Cys disulfide) [PCSK9_8] | binds | binds | – | – |
| TVFTSGRCTKSIPPICFWEEYLDWV (Cys-Cys disulfide) [PCSK9_9] | binds | binds | – | – |
| TVFTSWEEALDWVGFCTYSIPPQCYG (Cys-Cys disulfide) [PCSK9_2CH] | – | binds | binds | – |
| TVFTSWEEALDWVGICTASIPPICQ (Cys-Cys disulfide) [PCSK9_2EC] | – | binds | binds | – |
| FCTYSIPPQCYGGTVFTSWEEALDWV (Cys-Cys disulfide) [PCSK9_3CH] | – | binds | binds | – |
| ICTASIPPICQGTVFTSWEEALDWV (Cys-Cys disulfide) [PCSK9_3EC] | – | binds | binds | – |
| WEEALDWVGFCTYSIPPQCYGTVFTS (Cys-Cys disulfide) [PCSK9_5CH] | – | binds | binds | – |
| WEEALDWVGICTASIPPICQGTVFTS (Cys-Cys disulfide) [PCSK9_5EC] | – | binds | binds | – |
| WEEYLDYVGFCTYSIPPQCYGTVFTS (Cys-Cys disulfide) [PCSK9_6CH] | – | binds | binds | – |
| WEEYLDYVGICTASIPPICQGTVFTS (Cys-Cys disulfide) [PCSK9_6EC] | – | binds | binds | – |
| TVFTSGFCTYSIPPQCYGWEEYLDWV (Cys-Cys disulfide) [PCSK9_9CH] | – | binds | binds | – |
| TVFTSGICTASIPPICQWEEYLDWV (Cys-Cys disulfide) [PCSK9_9EC] | – | binds | binds | – |
| GRCPKILQRCF (Cys-Cys disulfide) [BT43] | – | – | – | no binding (tested: 50 µM) |

— patent US20230416329A1, “A PEPTIDE WITH DISULFIDE BONDS AND INHIBITORY ACTIVITY AGAINST SERINE PROTEASES, DERIVED HYBRID PEPTIDES THEREOF, AND USES THEREOF” (INSTITUTE OF MATERIA MEDICA , CHINESE ACADEMY OF MEDICAL …, priority 2020, published 2023)
